These are yes or no findings as the source states them, for the method shown. In cells and extracts the contact can be indirect. These calls come from enrichment with a bait or labelling near it, and not all partners need be listed. Tags and fused reporters may be left off the sequences shown.

The assay has as its target T1, 3xFLAG-B12 (UniProt Q9NXW2).
T1 sequence: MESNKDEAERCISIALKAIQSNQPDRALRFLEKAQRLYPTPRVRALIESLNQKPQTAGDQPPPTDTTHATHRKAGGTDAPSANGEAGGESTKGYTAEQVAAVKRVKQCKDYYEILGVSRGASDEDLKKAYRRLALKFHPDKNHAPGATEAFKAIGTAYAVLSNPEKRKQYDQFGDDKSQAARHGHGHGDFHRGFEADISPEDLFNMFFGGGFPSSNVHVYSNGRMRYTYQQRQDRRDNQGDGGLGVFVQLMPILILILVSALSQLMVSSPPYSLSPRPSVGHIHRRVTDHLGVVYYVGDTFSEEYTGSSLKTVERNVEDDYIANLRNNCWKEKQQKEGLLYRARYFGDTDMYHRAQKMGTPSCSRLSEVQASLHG
The experiment in a line: affinity purification with mass spectrometry; 3xFLAG-B12 stable Flp-In 293 T-REx cells; digitonin-permeabilised, pellet lysed in 50 mM Hepes pH 7.5, 150 mM NaCl, 1% deoxy Big CHAP; anti-FLAG M2 antibody and Protein G magnetic beads, 4°C; eluted with 3xFLAG peptide; shot gun mass spectrometry; parental cells as control.

B1: PTPLAD1 (protein, UniProt Q9P035 1-362)
chain: MENQVLTPHVYWAQRHRELYLRVELSDVQNPAISITENVLHFKAQGHGAKGDNVYEFHLEFLDLVKPEPVYKLTQRQVNITVQKKVSQWWERLTKQEKRPLFLAPDFDRWLDESDAEMELRAKEEERLNKLRLESEGSPETLTNLRKGYLFMYNLVQFLGFSWIFVNLTVRFCILGKESFYDTFHTVADMMYFCQMLAVVETINAAIGVTTSPVLPSLIQLLGRNFILFIIFGTMEEMQNKAVVFFVFYLWSAIEIFRYSFYMLTCIDMDWKVLTWLRYTLWIPLYPLGCLAEAVSVIQSIPIFNETGRFSFTLPYPVKIKVRFSFFLQIYLIMIFLGLYINFRHLYKQRRRRYGQKKKKIH
Regarding B1, the binding entry is recorded as “binds”.

B2: CLCC1 (protein, UniProt Q96S66 19-551)
chain: HDDDWIDPTDMLNYDAASGTMRKSQAKYGISGEKDVSPDLSCADEISECYHKLDSLTYKIDECEKKKREDYESQSNPVFRRYLNKILIEAGKLGLPDENKGDMHYDAEIILKRETLLEIQKFLNGEDWKPGALDDALSDILINFKFHDFETWKWRFEDSFGVDPYNVLMVLLCLLCIVVLVATELWTYVRWYTQLRRVLIISFLFSLGWNWMYLYKLAFAQHQAEVAKMEPLNNVCAKKMDWTGSIWEWFRSSWTYKDDPCQKYYELLLVNPIWLVPPTKALAVTFTTFVTEPLKHIGKGTGEFIKALMKEIPALLHLPVLIIMALAILSFCYGAGKSVHVLRHIGGPESEPPQALRPRDRRRQEEIDYRPDGGAGDADFHYRGQMGPTEQGPYAKTYEGRREILRERDVDLRFQTGNKSPEVLRAFDVPDAEAREHPTVVPSHKSPVLDTKPKETGGILGEGTPKESSTESSQSAKPVSGQDTSGNTEGSPAAEKAQLKSEAAGSPDQGSTYSPARGVAGPRGQDPVSSPCG
For the molecule B2, the binding entry was “binds”.

B3: Erlin1 (endogenous) (protein, UniProt O75477 1-348)
chain: MNMTQARVLVAAVVGLVAVLLYASIHKIEEGHLAVYYRGGALLTSPSGPGYHIMLPFITTFRSVQTTLQTDEVKNVPCGTSGGVMIYIDRIEVVNMLAPYAVFDIVRNYTADYDKTLIFNKIHHELNQFCSAHTLQEVYIELFDQIDENLKQALQKDLNLMAPGLTIQAVRVTKPKIPEAIRRNFELMEAEKTKLLIAAQKQKVVEKEAETERKKAVIEAEKIAQVAKIRFQQKVMEKETEKRISEIEDAAFLAREKAKADAEYYAAHKYATSNKHKLTPEYLELKKYQAIASNSKIYFGSNIPNMFVDSSCALKYSDIRTGRESSLPSKEALEPSGENVIQNKESTG
Consider B3, for which the binding entry was “binds”.

B4: UBAC2 (protein, UniProt Q8NBM4 36-344)
chain: HCQKLFVYDLHAVKNDFQIWRLICGRIICLDLKDTFCSSLLIYNFRIFERRYGSRKFASFLLGSWVLSALFDFLLIEAMQYFFGITAASNLPSGFLAPVFALFVPFYCSIPRVQVAQILGPLSITNKTLIYILGLQLFTSGSYIWIVAISGLMSGLCYDSKMFQVHQVLCIPSWMAKFFSWTLEPIFSSSEPTSEARIGMGATLDIQRQQRMELLDRQLMFSQFAQGRRQRQQQGGMINWNRLFPPLRQRQNVNYQGGRQSEPAAPPLEVSEEQVARLMEMGFSRGDALEALRASNNDLNVATNFLLQH
B4: the binding entry is “binds”.

B5: DDOST (protein, UniProt P39656 43-456)
chain: SGPRTLVLLDNLNVRETHSLFFRSLKDRGFELTFKTADDPSLSLIKYGEFLYDNLIIFSPSVEDFGGNINVETISAFIDGGGSVLVAASSDIGDPLRELGSECGIEFDEEKTAVIDHHNYDISDLGQHTLIVADTENLLKAPTIVGKSSLNPILFRGVGMVADPDNPLVLDILTGSSTSYSFFPDKPITQYPHAVGKNTLLIAGLQARNNARVIFSGSLDFFSDSFFNSAVQKAAPGSQRYSQTGNYELAVALSRWVFKEEGVLRVGPVSHHRVGETAPPNAYTVTDLVEYSIVIQQLSNGKWVPFDGDDIQLEFVRIDPFVRTFLKKKGGKYSVQFKLPDVYGVFQFKVDYNRLGYTHLYSSTQVSVRPLQHTQYERFIPSAYPYYASAFSMMLGLFIFSIVFLHMKEKEKSD
On to B5, for which the binding result is on record as “binds”.
